# From PubChem BioAssay AID493014 (National Center for Advancing Translational Sciences (NCATS), 2011)
# Out of some 340,000 compounds screened, about 170 (0.05%) were called active. The shares of active, inactive and inconclusive entries below differ from those in the screen. Calls follow the shape of the dose curve; as a rule, active = well fitted inhibition curve with a large enough effect in the signal ratio, with a control signal flat (not every such curve was filed as active); inconclusive = small, poorly fitted or top-dose-only effect, or effect the other way, or a change in a side signal; inactive = flat fitted curve, though single readings scatter; the % refers to the signal ratio. A potency beside an inconclusive call is a rough fit, not a confirmed value.
# Assay: qHTS Assay to Find Inhibitors of Chronic Active B-Cell Receptor Signaling;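 as to activity change, negative = inhibition: plate controls were basal doxycycline-induced cells for no effect and cells given 10 µM MG132 for full effect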
# Settings: ABC-DLBCL IkBa-CBG/CBR reporter, luminescence ratio (green luciferase fused to IkBa over red control in TMD8 lymphoma cells), 4 h; activity change, negative = inhibition: at 46.1 µM (top of the series) unless noted
# Outline: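 Compounds up to 46 uM were incubated four hours with TMD8 cells whose green CBG68 luciferase is fused to IkappaBalpha; red CBR luminescence normalised the signal, and concentration-effect curves were fitted to fusion, red and ratio data.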
# Potency is read from the fitted curve at half-maximal effect.
Compound,"activity change, negative = inhibition",Potency
Cn1c(=O)n(C)c2cc(N3CCCC3)c(NC(=O)c3cccc(F)c3)cc21,inconclusive: -5.19%,–
Cn1c(NC(=O)CCC2CCCCC2)cc(=O)n(C)c1=O,–,"inconclusive: 0.116 µM [rising, full curve, poor fit]"
CN(CCc1ccccn1)C(=O)c1nn2c(C(F)(F)F)cc(-c3ccco3)nc2c1Cl,inconclusive: 12.4%,–
CCNc1nc(NCC)nc(N/N=C/c2ccc(O)c(OC)c2)n1,–,"inconclusive: 12.6 µM [falling, partial curve]"
COc1ccc(Cc2nnc(NCCO)[nH]c2=O)cc1,inactive,–
Cc1cc(OCc2cc(C(=O)NC(C)c3c(C)nn(C)c3C)no2)cc(C)c1Cl (stereo unspecified),inactive,–
Cc1nnc(N/N=C/c2ccccc2C(F)(F)F)n1N,–,"inconclusive: 22.4 µM [falling, partial curve, poor fit]"
Cc1ncc(CO)c2c1Oc1nc(-c3ccccc3)nc(SCC(=O)N3CCOCC3)c1C2,inconclusive: -28.6%,–
O=C(O)C(=O)/C(=C\c1ccccc1)c1ccc2ccccc2n1,–,"inconclusive: 2.59 µM [rising, partial curve, poor fit]"
CC(C)(C)[C@@H]1C=C(C(=O)N2CCN(Cc3ccccc3)CC2)O[C@H](OCc2ccc(CO)cc2)C1,inconclusive: 12.4%,–
COC(=O)c1onc(-c2c(OC)cc(OC)cc2OC)c1C(=O)OC,inconclusive: 1.76%,–
C#CCOc1c(Cl)cc(/C=C2/C(=O)ON=C2C)cc1OC,inactive,–
COc1ccc(C(O)(CCN2CCCCC2)C2CCCCC2)cc1 (stereo unspecified),inactive,–
CN(CC1CCOCC1)C(=O)CC1C(=O)NCCN1Cc1cccc(C(F)(F)F)c1 (stereo unspecified),inactive,–
Cc1cccc(N2C(=O)CC(Sc3nc(-c4ccccc4)c4cc(Cl)ccc4n3)C2=O)c1 (stereo unspecified),inactive,–
Cc1c(N=C2N=C(NC(=O)NC(C)(C)C)c3ccccc32)c(=O)n(-c2ccccc2)n1C,inconclusive: -3.8%,–
N=c1c(S(=O)(=O)c2ccccc2)cc2c(=O)n3ccccc3nc2n1Cc1cccnc1,inconclusive: -1.72%,–
O=C(O)CCN1C(=O)/C(=C\c2ccncc2)SC1=S,inconclusive: 12%,–
CCOC(=O)c1c(C)[nH]c(O)c1C=Nc1ccc(C(F)(F)F)cc1,–,"inconclusive: 0.501 µM [rising, full curve, poor fit]"
CC1=N/C(=C\c2ccc([N+](=O)[O-])cc2)C(=O)N1c1ccc(F)cc1F,inconclusive: -21.7%,–
Nc1nonc1-c1nc2ccccc2n1Cc1ccccc1,inconclusive: -2.14%,–
CC(C)CN(Cc1cc(=O)oc2cc(-c3ccccc3)c(O)cc12)CC(C)C,inconclusive: 10.9%,–
O=C(CSc1nnc(Cn2nnc3ccccc32)o1)N(Cc1ccc(Cl)cc1)c1ccccc1,inconclusive: 18.4%,–
COc1cccc(N(CC(=O)NC2CCCC2)C(=O)Cn2nnc(-c3ccc(C)cc3)n2)c1,inconclusive: -3.22%,–
CC1(C)N=C(c2cccc(F)c2)C(=O)N1,inconclusive: -0.107%,–
S=C(NCc1cccs1)Nc1cccc(Cl)c1,inconclusive: 6.28%,–

# 10 structures already listed, sorted by number of heavy atoms, smallest number first:
Compound,"activity change, negative = inhibition",Potency
CC1(C)N=C(c2cccc(F)c2)C(=O)N1,inconclusive: -0.107%,–
Cn1c(NC(=O)CCC2CCCCC2)cc(=O)n(C)c1=O,–,"inconclusive: 0.116 µM [rising, full curve, poor fit]"
Nc1nonc1-c1nc2ccccc2n1Cc1ccccc1,inconclusive: -2.14%,–
O=C(O)C(=O)/C(=C\c1ccccc1)c1ccc2ccccc2n1,–,"inconclusive: 2.59 µM [rising, partial curve, poor fit]"
COc1ccc(C(O)(CCN2CCCCC2)C2CCCCC2)cc1 (stereo unspecified),inactive,–
COC(=O)c1onc(-c2c(OC)cc(OC)cc2OC)c1C(=O)OC,inconclusive: 1.76%,–
Cn1c(=O)n(C)c2cc(N3CCCC3)c(NC(=O)c3cccc(F)c3)cc21,inconclusive: -5.19%,–
Cc1cc(OCc2cc(C(=O)NC(C)c3c(C)nn(C)c3C)no2)cc(C)c1Cl (stereo unspecified),inactive,–
CN(CCc1ccccn1)C(=O)c1nn2c(C(F)(F)F)cc(-c3ccco3)nc2c1Cl,inconclusive: 12.4%,–
COc1cccc(N(CC(=O)NC2CCCC2)C(=O)Cn2nnc(-c3ccc(C)cc3)n2)c1,inconclusive: -3.22%,–

# Carrying on:

Compound,"activity change, negative = inhibition",Potency
COc1ccc(OC)c(NC(=O)c2cc(-c3cc(C)c(C)cc3O)n[nH]2)c1,inconclusive: -13.5%,–
N#Cc1ccc(Sc2nc3ccccc3[nH]2)cc1C#N,inconclusive: -23%,–
Cc1ccc(NC(=O)NCc2cccn2C)cc1C,–,"inconclusive: 35.5 µM [falling, partial curve, poor fit]"
Cc1ccc(C(=O)NCC(=O)OCC(=O)Nc2ncc(C(F)(F)F)cc2Cl)cc1,inconclusive: 4.27%,–
CC(=O)Nc1ccc(-c2nc(C)c(C(C)=O)n2O)cc1,–,"inconclusive: 20.6 µM [falling, partial curve]"
CCc1cc2c(-c3ccccc3)cc(=O)oc2cc1OCC(C)=O,inconclusive: -4.13%,–
Cc1cc(OC(=O)c2ccccc2Br)cc(=O)n1C,inconclusive: -7.92%,–
Nc1nc(CN2CCN(Cc3ccccc3)CC2)nc(Nc2ccc3c(c2)OCCO3)n1,inactive,–
CC(C)(C)c1ccc(C(=O)C2CCCN(C(=O)CCn3cncn3)C2)cc1 (stereo unspecified),inactive,–
COc1cc(CNCc2ccccn2)ccc1OCc1cccc(Cl)c1,–,"inconclusive: 35.5 µM [falling, single point]"
OCc1nc2ccccc2n1CC(O)Cn1ccc2ccccc21 (stereo unspecified),inconclusive: -1.36%,–
Cc1ccc(N(C)C(=O)c2ccc3c(Cl)c4c(nc3c2)CCC4)cc1C,inactive,–
COc1cc(NC(=O)CCn2c(=O)oc3ccccc32)cc(OC)c1OC,–,"inconclusive: 11.2 µM [falling, partial curve, poor fit]"
O=C(OCn1ncc(Br)c(Br)c1=O)c1ccc(F)cc1,–,"inconclusive: 5.17 µM [rising, partial curve, poor fit]"
CCOC(=O)N1CCc2c(sc(NCc3cccc(F)c3)c2C(=O)Nc2ccc(OC)cc2)C1,–,"inconclusive: 12.6 µM [falling, partial curve, poor fit]"
COc1ccc(-n2cc(-c3ccccc3)nc2SCC(=O)Nc2ccccc2C)cc1,inconclusive: 13.5%,–
Cc1ccccc1OCCOc1ccccc1C=C(C#N)C#N,–,"inconclusive: 23.1 µM [falling, single point]"
COc1ccc(NC(=O)Nc2cccs2)cc1OC,–,"inconclusive: 6.51 µM [rising, partial curve, poor fit]"
CC(=O)c1ccc(NC(=O)COC(=O)c2ccccc2Sc2ccccc2C#N)cc1,inconclusive: 4.64%,–
CC1CN(CCS(=O)(=O)c2cc(Cl)ccc2Cl)CC(C)O1 (stereo unspecified),–,"inconclusive: 11.2 µM [falling, partial curve]"
COc1cccc(Cn2c(Oc3cccc(C)c3)nc3c2c(=O)n(C)c(=O)n3C)c1,inconclusive: 3.12%,–
CC(C)(C)n1cnc2cc(NS(=O)(=O)c3ccc(Br)cc3)ccc21,inconclusive: -28.6%,–
NC(=O)c1nc[nH]c1C(=O)Nc1cccc(C(F)(F)F)c1,inconclusive: 0.314%,–
CCCCNC(=O)CN1C(=O)NC2NC(=O)NC21 (stereo unspecified),inactive,–
O=C1NC(=S)S/C1=C\c1ccc(SCc2ccco2)o1,–,"inconclusive: 20.6 µM [rising, partial curve, poor fit]"
